# This is one part of the list. The data scatter; read single values as rough.
# Protein sequences, listed by entry. Tags and fused reporters are not part of them. Lines headed by an entry give the natural chain unless they say otherwise; changes in a name come on top. Residues count along the entry.
# UniProt Q12888, 586-605: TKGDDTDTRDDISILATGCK
# UniProt Q12888, 89-116: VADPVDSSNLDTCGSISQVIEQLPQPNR
# UniProt Q92547, whole entry, looked up: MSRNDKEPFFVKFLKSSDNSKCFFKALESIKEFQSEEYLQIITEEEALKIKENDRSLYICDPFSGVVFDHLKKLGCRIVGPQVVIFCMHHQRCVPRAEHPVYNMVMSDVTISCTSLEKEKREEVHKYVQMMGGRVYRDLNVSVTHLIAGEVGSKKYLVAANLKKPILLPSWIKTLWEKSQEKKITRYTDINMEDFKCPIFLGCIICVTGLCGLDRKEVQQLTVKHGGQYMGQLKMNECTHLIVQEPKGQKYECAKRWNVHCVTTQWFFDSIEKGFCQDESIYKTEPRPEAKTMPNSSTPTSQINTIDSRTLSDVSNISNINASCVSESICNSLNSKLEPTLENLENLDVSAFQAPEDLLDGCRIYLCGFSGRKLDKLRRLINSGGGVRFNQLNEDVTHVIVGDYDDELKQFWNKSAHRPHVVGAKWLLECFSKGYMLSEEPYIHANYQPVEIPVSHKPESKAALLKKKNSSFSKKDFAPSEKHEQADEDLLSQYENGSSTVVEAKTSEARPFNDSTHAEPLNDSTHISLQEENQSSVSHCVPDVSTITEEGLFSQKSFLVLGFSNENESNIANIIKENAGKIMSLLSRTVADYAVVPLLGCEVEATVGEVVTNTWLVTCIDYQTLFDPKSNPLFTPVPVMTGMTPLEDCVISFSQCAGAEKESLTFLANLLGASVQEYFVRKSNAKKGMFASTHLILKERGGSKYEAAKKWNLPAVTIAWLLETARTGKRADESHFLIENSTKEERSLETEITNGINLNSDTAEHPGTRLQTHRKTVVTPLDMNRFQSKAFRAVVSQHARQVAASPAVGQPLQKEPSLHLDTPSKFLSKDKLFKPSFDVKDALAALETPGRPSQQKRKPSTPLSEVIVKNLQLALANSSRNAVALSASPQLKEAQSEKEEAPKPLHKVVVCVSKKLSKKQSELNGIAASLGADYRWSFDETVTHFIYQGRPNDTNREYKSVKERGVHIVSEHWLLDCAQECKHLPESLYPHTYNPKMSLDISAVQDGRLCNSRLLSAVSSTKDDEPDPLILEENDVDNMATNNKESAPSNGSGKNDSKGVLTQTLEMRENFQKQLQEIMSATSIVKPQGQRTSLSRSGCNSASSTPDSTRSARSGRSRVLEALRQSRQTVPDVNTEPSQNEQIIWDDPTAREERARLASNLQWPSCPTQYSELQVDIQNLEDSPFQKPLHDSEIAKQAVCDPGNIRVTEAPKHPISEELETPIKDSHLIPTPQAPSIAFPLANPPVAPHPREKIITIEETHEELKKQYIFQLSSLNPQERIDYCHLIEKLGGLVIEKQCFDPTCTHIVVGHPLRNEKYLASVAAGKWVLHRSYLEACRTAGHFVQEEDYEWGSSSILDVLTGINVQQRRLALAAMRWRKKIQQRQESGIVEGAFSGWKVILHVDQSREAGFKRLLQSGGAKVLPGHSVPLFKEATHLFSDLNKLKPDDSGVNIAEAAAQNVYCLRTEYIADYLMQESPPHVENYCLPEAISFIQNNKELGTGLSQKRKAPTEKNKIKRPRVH
# UniProt Q16890: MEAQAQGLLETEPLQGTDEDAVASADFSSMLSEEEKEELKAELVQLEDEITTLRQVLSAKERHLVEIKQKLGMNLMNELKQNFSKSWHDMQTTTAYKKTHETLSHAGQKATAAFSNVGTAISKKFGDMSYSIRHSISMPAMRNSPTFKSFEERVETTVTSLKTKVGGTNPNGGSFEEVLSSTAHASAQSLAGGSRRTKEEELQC
# UniProt P50616: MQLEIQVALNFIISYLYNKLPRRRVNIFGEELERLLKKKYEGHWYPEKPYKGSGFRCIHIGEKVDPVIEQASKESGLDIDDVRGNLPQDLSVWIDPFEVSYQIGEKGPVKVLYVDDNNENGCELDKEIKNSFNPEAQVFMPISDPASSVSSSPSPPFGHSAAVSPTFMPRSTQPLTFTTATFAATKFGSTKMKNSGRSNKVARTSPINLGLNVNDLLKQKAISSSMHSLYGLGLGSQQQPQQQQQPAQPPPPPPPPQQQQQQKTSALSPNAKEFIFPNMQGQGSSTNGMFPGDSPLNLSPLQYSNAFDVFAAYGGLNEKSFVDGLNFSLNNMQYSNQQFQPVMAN
# UniProt Q3LXA3: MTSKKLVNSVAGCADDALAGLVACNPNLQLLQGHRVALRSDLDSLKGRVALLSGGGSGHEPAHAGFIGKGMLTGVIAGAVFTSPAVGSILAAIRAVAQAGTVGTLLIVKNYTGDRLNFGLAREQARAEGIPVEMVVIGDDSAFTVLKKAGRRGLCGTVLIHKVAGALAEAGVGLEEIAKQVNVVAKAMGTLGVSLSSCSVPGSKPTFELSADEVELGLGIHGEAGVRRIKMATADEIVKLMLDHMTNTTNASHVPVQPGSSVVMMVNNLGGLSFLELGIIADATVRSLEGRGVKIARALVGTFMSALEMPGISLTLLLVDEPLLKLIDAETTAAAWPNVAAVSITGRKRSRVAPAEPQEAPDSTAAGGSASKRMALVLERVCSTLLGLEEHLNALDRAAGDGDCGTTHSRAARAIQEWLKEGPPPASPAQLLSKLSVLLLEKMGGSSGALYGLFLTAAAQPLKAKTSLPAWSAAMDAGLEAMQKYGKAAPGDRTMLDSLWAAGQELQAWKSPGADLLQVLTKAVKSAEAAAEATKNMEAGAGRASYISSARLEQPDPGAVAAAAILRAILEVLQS
# UniProt Q9C0C2: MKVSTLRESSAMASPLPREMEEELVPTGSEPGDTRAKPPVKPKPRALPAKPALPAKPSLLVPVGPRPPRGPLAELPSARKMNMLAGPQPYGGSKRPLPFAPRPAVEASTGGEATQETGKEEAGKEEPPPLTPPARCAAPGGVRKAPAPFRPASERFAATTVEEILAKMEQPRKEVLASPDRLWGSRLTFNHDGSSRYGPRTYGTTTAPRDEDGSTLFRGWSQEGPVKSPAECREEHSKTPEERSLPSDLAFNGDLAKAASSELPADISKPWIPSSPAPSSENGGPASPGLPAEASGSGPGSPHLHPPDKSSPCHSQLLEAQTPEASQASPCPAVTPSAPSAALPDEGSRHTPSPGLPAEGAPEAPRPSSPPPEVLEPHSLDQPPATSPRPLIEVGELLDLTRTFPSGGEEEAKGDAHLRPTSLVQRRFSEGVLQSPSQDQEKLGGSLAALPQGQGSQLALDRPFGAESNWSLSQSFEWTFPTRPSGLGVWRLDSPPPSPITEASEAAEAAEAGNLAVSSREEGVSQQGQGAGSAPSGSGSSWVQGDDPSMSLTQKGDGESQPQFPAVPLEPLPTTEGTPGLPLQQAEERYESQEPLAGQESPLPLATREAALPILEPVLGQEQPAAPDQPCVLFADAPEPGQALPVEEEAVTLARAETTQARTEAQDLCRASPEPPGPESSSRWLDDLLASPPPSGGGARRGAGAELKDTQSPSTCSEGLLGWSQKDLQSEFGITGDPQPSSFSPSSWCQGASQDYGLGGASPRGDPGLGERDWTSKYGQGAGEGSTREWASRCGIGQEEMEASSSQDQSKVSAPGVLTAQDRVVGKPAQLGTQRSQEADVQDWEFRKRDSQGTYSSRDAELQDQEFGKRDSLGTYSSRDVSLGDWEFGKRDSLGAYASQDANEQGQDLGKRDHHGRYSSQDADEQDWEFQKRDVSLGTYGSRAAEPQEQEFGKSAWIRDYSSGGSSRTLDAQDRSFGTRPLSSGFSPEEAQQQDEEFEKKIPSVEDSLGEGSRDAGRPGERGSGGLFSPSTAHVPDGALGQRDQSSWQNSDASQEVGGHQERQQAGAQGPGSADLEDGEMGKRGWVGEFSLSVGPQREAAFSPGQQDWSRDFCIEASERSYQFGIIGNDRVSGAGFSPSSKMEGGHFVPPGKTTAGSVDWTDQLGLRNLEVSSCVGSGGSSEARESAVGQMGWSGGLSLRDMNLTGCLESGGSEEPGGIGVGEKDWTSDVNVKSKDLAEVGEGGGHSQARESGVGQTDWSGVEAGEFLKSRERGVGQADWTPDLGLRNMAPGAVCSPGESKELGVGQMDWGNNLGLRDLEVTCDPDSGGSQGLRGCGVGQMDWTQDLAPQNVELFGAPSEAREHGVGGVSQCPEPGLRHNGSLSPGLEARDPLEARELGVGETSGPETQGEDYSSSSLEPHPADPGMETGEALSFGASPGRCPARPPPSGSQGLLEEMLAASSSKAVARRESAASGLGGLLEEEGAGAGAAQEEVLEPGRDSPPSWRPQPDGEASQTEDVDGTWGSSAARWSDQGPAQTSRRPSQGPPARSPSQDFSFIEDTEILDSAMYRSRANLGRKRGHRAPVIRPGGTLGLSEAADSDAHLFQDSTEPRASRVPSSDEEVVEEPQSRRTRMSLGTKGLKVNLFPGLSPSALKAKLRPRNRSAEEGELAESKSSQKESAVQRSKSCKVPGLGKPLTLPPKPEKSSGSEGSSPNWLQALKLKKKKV
# UniProt O15321, whole entry, looked up: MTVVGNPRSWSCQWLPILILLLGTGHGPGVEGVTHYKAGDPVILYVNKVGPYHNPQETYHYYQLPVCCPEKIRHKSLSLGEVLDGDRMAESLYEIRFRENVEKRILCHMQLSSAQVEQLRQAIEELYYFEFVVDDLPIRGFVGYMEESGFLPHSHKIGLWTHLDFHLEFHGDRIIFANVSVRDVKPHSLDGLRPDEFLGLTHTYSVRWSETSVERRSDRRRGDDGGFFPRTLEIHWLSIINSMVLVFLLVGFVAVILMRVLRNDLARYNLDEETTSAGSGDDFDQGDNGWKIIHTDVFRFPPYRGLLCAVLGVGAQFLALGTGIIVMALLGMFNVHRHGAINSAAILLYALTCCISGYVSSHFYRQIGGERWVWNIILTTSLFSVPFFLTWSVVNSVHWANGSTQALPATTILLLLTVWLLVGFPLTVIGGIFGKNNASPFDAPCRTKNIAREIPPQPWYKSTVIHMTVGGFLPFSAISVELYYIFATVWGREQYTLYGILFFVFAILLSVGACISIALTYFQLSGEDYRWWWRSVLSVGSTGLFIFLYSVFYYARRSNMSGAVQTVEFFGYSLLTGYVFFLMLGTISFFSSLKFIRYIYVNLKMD
# UniProt Q9Y4G6, 2400-2424: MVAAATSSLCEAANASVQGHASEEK
# UniProt Q12933: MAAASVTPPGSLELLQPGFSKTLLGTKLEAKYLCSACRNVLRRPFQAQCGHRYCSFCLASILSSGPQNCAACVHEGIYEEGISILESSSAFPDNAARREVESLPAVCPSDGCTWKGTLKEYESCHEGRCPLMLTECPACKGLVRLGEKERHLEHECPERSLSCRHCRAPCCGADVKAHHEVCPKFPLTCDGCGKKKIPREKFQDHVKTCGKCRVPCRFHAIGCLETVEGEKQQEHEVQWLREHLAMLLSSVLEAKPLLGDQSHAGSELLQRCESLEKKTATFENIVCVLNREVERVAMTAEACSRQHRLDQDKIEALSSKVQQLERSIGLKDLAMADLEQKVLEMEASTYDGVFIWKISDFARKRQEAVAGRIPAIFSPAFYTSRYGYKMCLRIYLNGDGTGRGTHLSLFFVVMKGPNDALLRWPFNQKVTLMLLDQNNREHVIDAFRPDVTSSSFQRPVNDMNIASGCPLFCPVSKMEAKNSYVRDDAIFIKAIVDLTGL
# UniProt Q9Y5L0: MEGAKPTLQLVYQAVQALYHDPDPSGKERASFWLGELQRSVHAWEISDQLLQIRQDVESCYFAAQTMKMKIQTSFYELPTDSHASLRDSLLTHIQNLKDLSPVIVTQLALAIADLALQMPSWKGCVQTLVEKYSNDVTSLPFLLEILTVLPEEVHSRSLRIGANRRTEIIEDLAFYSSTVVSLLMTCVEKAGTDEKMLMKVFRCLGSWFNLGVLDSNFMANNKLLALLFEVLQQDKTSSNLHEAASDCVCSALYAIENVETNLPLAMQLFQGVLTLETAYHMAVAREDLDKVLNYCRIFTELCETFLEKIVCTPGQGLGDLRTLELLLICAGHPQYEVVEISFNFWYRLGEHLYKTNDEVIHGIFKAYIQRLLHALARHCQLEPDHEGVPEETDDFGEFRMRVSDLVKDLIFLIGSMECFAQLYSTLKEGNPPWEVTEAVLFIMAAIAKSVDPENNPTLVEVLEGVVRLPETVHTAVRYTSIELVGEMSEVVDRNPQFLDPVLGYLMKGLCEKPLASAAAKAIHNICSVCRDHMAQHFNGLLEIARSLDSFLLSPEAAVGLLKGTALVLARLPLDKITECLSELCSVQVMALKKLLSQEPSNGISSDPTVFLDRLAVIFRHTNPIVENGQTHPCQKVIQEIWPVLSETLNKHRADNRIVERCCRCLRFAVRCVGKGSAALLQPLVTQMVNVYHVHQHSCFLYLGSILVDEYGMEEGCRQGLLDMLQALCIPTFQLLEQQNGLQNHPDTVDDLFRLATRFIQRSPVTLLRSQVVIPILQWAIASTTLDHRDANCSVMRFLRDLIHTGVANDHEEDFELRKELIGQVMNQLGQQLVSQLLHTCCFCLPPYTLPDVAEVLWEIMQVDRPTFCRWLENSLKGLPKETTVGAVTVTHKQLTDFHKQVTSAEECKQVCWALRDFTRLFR
# Tests used:
# [1] = compound: ClCC(=O)N[C@@H]1CCCc2ccccc12; test: log2 mean competition ratio of IA-DTB cysteine labelling (DMSO/compound) (log2 ratio); higher = stronger cysteine engagement by compound; conditions: treatment time: 4 h, cell line lysate: HEK293T
# Protocol: (§1)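 IA-DTB competitive cysteine chemoproteomics in HEK293T RIPA lysate. Lysates were treated with compound 29 or 30 at 50 or 200 µM for 4 h, then IA-DTB (500 µM, 1 h), trypsin-digested, NeutrAvidin-enriched and analysed by diaPASEF. Competition ratio = intensity DMSO / intensity compound (n=4 treated, n=64 DMSO); binding: mean log2 CR ≥ 1 and p ≤ 0.05 plus QC filters. Target is the cysteine site.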
# [2] = compound: ClCC(=O)N[C@H]1CCCc2ccccc12; test: as above; conditions: treatment time: 4 h, cell line lysate: HEK293T
# Protocol: as §1
Target,log2 mean competition ratio ([1]; 50 µM),log2 mean competition ratio ([1]; 200 µM),log2 mean competition ratio ([2]; 50 µM),log2 mean competition ratio ([2]; 200 µM)
TP53BP1 C604 (UniProt Q12888),-0.247,0.303,,
TLE3 C26,-0.254,-0.00262,,
TRIM33 C153,-0.0984,0.142,,
TOPBP1 C1099 (UniProt Q92547),0.0687,0.136,,
TRIM24 C81 (UniProt O15164),-0.0586,0.0246,,
TPD52L1 C204 (UniProt Q16890),-0.258,,,
TPR C224 (UniProt P12270),0.429,-0.354,,
TOB1 C122 (UniProt P50616),-0.406,-0.0646,,
TKFC C382 (UniProt Q3LXA3),0.596,0.332,,
TOPBP1 C911 (UniProt Q92547),-0.107,-0.209,,
TMEM143 C408 (UniProt Q96AN5),-0.0104,-0.262,,
TNK2 C843 (UniProt Q07912),0.0341,0.0976,,
TMEM209 C367 (UniProt Q96SK2),1.04,0.687,,
TK1 C185,-0.106,0.333,,
TLE4 C529 (UniProt Q04727),-0.14,0.511,,
TPMT C70 (UniProt P51580),-0.0236,-0.245,,
TOP1 C733 (UniProt P11387),0.323,0.0448,,
TONSL C66 (UniProt Q96HA7),0.281,0.211,,
TPGS2 C150,0.0695,-0.198,,
TINF2 C332,-0.072,-0.163,,
TNKS1BP1 C669 (UniProt Q9C0C2),-0.097,0.182,,
TM9SF1 C445 (UniProt O15321),0.162,0.0834,,
TRIM4 C87 (UniProt Q9C037),-0.0386,-0.139,,
TLN2 C2409 (UniProt Q9Y4G6),-0.472,-0.124,,

# Given bar-delimited: part of the list above.
Target | log2 mean competition ratio ([1]; 50 µM) | log2 mean competition ratio ([1]; 200 µM) | log2 mean competition ratio ([2]; 50 µM) | log2 mean competition ratio ([2]; 200 µM)
TLE3 C26 | -0.254 | -0.00262 |  | 
TRIM24 C81 (UniProt O15164) | -0.0586 | 0.0246 |  | 
TPD52L1 C204 (UniProt Q16890) | -0.258 |  |  | 
TPR C224 (UniProt P12270) | 0.429 | -0.354 |  | 
TKFC C382 (UniProt Q3LXA3) | 0.596 | 0.332 |  | 
TOPBP1 C911 (UniProt Q92547) | -0.107 | -0.209 |  | 
TMEM143 C408 (UniProt Q96AN5) | -0.0104 | -0.262 |  | 
TNK2 C843 (UniProt Q07912) | 0.0341 | 0.0976 |  | 
TMEM209 C367 (UniProt Q96SK2) | 1.04 | 0.687 |  | 
TK1 C185 | -0.106 | 0.333 |  | 
TOP1 C733 (UniProt P11387) | 0.323 | 0.0448 |  | 
TPGS2 C150 | 0.0695 | -0.198 |  | 
TNKS1BP1 C669 (UniProt Q9C0C2) | -0.097 | 0.182 |  | 
TLN2 C2409 (UniProt Q9Y4G6) | -0.472 | -0.124 |  | 

# (further entries)

Target,log2 mean competition ratio ([1]; 50 µM),log2 mean competition ratio ([1]; 200 µM),log2 mean competition ratio ([2]; 50 µM),log2 mean competition ratio ([2]; 200 µM)
TMLHE C85 (UniProt Q9NVH6),-0.0372,0.317,,
TJP2 C601 (UniProt Q9UDY2),-0.141,-0.179,,
TP53INP2 C214,0.262,-0.00694,,
TNKS1BP1 C1114 (UniProt Q9C0C2),0.0903,-0.0388,,
TIMM50 C236 (UniProt Q3ZCQ8),0.00377,-0.0218,,
TOX4 C577 (UniProt O94842),-0.162,-0.0131,,
TNS3 C1241 (UniProt Q68CZ2),0.551,0.424,,
TRDMT1 C222 (UniProt O14717),-0.576,-1.38,,
TRIP6 C429 (UniProt Q15654),0.17,-0.354,,
TNFRSF1A C248 (UniProt P19438),-0.164,-0.301,,
TP53BP1 C101 (UniProt Q12888),-0.403,0.0506,,
TRAPPC8 C943 (UniProt Q9Y2L5),-0.0845,0.0137,,
TOMM70 C317 (UniProt O94826),-0.174,-0.187,,
TMTC4 C478 (UniProt Q5T4D3),0.234,0.441,-0.000899,0.455
TOB2 C120,-0.322,-0.0553,-0.186,-0.0682
TMEM223 C156 (UniProt A0PJW6),0.0991,0.244,,
TLN2 C2197 (UniProt Q9Y4G6),-0.169,0.199,,
TNKS1BP1 C1324 (UniProt Q9C0C2),0.104,0.045,,
TIPRL C14 (UniProt O75663),-0.106,-0.539,,
TIMMDC1 C78 (UniProt Q9NPL8),-0.183,0.0595,,
TMEM199 C124 (UniProt Q8N511),-0.133,0.0203,,
TRAF3IP1 C594 (UniProt Q8TDR0),0.636,0.236,,0.369
TLN1 C1927 (UniProt Q9Y490),-0.273,-0.354,,
TNFRSF10B C248 (UniProt O14763),-0.134,-0.0364,,

Target,log2 mean competition ratio ([1]; 50 µM),log2 mean competition ratio ([1]; 200 µM),log2 mean competition ratio ([2]; 50 µM),log2 mean competition ratio ([2]; 200 µM)
TMSB15A;TMSB15B C41;(C41),0.0123,-0.184,,
TMEM131 C1747 (UniProt Q92545),0.509,0.239,0.599,-0.0467
TRAPPC13 C32 (UniProt A5PLN9),-0.0495,0.16,,
TRIP12 C1538 (UniProt Q14669),-0.138,-0.238,,
TP53BP1 C986 (UniProt Q12888),-0.191,0.17,0.00173,0.207
TONSL C1365 (UniProt Q96HA7),-0.102,0.191,,
TRIP4 C86 (UniProt Q15650),-0.142,-0.173,,
TRAF2 C124 (UniProt Q12933),-0.12,-0.144,,
TM9SF3 C428 (UniProt Q9HD45),0.129,0.276,,
TKFC C155 (UniProt Q3LXA3),0.708,0.0918,,
TMEM115 C156 (UniProt Q12893),-0.0563,0.0531,,0.362
TNPO3 C793 (UniProt Q9Y5L0),0.155,1.11,,
TOR3A C385 (UniProt Q9H497),-0.0949,0.113,0.0381,0.126
TOMM34 C222 (UniProt Q15785),0.00118,0.0822,,
TMED9 C49 (UniProt Q9BVK6),-0.314,0.0281,,
TMUB2 C166 (UniProt Q71RG4),-0.292,0.0999,0.481,-0.00782
TNPO3 C634 (UniProt Q9Y5L0),0.205,0.154,0.0135,-0.291
TRIP11 C212 (UniProt Q15643),-0.315,0.425,,
TNPO3 C303 (UniProt Q9Y5L0),-0.191,-0.305,,
TRIM33 C461,0.0999,0.357,-0.0812,0.328
TMCO6 C309 (UniProt Q96DC7),0.125,0.822,-0.236,0.925
TLCD3A C35 (UniProt Q8TBR7),0.192,0.19,,
TRIP12 C156 (UniProt Q14669),0.0608,0.0207,,
TOR1AIP1 C424 (UniProt Q5JTV8),0.344,0.258,0.385,0.231

# Source: the supplement of paper PMC11732987, “Enantioselective OTUD7B fragment discovery through chemoproteomics screening and high-throughput optimisation” (Communications Chemistry, 2025)
